PubChem BioAssay AID504774 | Drosophila RNAi Screening Center – 2011

- Aim: 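Genes required for cells to withstand methyl methanesulphonate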 (primary screen)
- System: Drosophila Kc167 cells
- Reagents: long dsRNA against Drosophila genes, about 0.25 µg dsRNA per well
- Time to read-out: about 6 days: 3 days knock-down, then 3 days with or without MMS
- Conditions: methyl methanesulphonate 0.004% (w/v) for 3 days after knock-down
- Measurement: 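Viability in wells given MMS, read as ATP luminescence, normalised by quantiles plate by plate and averaged across replicates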
- Direction: mean viability with MMS and viability with MMS: higher = more surviving cells after MMS
In all, the deposit lists about 23,000 reagents; shown is an unselected part of those with a known target gene and a result. 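Values are quantile-normalised luminescence on an arbitrary scale; higher means more cells surviving MMS.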 Further read-outs or replicates are left out here. No sequences are given here.

daw [DRSC00479]
- mean viability with MMS: 3.53e6
- viability with MMS, replicate 1: 3.97e6

PGRP-SB1 [DRSC11090]
- mean viability with MMS: 3.55e6
- viability with MMS, replicate 1: 4.06e6

CG14635 [DRSC17945]
- mean viability with MMS: 3.45e6
- viability with MMS, replicate 1: 3.93e6

Pgm2a [DRSC07068]
- mean viability with MMS: 3.60e6
- viability with MMS, replicate 1: 3.97e6

RSG7 [DRSC20274]
- mean viability with MMS: 3.62e6
- viability with MMS, replicate 1: 4.11e6

RSG7 [DRSC22852]
- mean viability with MMS: 3.50e6
- viability with MMS, replicate 1: 4.05e6

e(r) [DRSC18768]
- mean viability with MMS: 3.64e6
- viability with MMS, replicate 1: 3.89e6

l(3)04053 [DRSC11640]
- mean viability with MMS: 3.63e6
- viability with MMS, replicate 1: 4.10e6

CG31819 [DRSC01532]
- mean viability with MMS: 3.66e6
- viability with MMS, replicate 1: 4.20e6

CG1965 [DRSC12577]
- mean viability with MMS: 3.73e6
- viability with MMS, replicate 1: 3.94e6

CG1965 [DRSC21828]
- mean viability with MMS: 3.41e6
- viability with MMS, replicate 1: 3.89e6

CG5282 [DRSC11775]
- mean viability with MMS: 3.53e6
- viability with MMS, replicate 1: 3.99e6

CG13605 [DRSC14608]
- mean viability with MMS: 3.67e6
- viability with MMS, replicate 1: 4.16e6

CG14642 [DRSC12228]
- mean viability with MMS: 3.59e6
- viability with MMS, replicate 1: 4.02e6

SIFaR [DRSC13467]
- mean viability with MMS: 3.49e6
- viability with MMS, replicate 1: 3.96e6

SIFaR [DRSC14266]
- mean viability with MMS: 3.53e6
- viability with MMS, replicate 1: 4.11e6

kkv [DRSC12315]
- mean viability with MMS: 3.75e6
- viability with MMS, replicate 1: 4.33e6

Cht12 [DRSC03844]
- mean viability with MMS: 3.39e6
- viability with MMS, replicate 1: 3.89e6

CG13324 [DRSC06361]
- mean viability with MMS: 3.42e6
- viability with MMS, replicate 1: 3.96e6

Idh3a [DRSC19446]
- mean viability with MMS: 3.55e6
- viability with MMS, replicate 1: 4.00e6

Mekk1 [DRSC16302]
- mean viability with MMS: 3.59e6
- viability with MMS, replicate 1: 3.93e6

Mekk1 [DRSC16303]
- mean viability with MMS: 3.43e6
- viability with MMS, replicate 1: 3.86e6

gus [DRSC04885]
- mean viability with MMS: 3.71e6
- viability with MMS, replicate 1: 4.15e6

gus [DRSC04886]
- mean viability with MMS: 3.53e6
- viability with MMS, replicate 1: 4.00e6

Rh2 [DRSC16821]
- mean viability with MMS: 3.44e6
- viability with MMS, replicate 1: 4.03e6

Lcp2 [DRSC07456]
- mean viability with MMS: 3.44e6
- viability with MMS, replicate 1: 3.96e6

CG9609 [DRSC20199]
- mean viability with MMS: 3.67e6
- viability with MMS, replicate 1: 4.27e6

kni [DRSC11891]
- mean viability with MMS: 3.44e6
- viability with MMS, replicate 1: 3.76e6

kni [DRSC23093]
- mean viability with MMS: 3.73e6
- viability with MMS, replicate 1: 4.16e6

Ufd4 [DRSC02871]
- mean viability with MMS: 3.59e6
- viability with MMS, replicate 1: 4.15e6

Bicra [DRSC14417]
- mean viability with MMS: 3.40e6
- viability with MMS, replicate 1: 3.77e6

Blos3 [DRSC09573]
- mean viability with MMS: 1.69e6
- viability with MMS, replicate 1: 3.77e6

nero [DRSC15432]
- mean viability with MMS: 3.41e6
- viability with MMS, replicate 1: 3.91e6

CG7246 [DRSC18422]
- mean viability with MMS: 1.66e6
- viability with MMS, replicate 1: 3.85e6

Myd88 [DRSC06815]
- mean viability with MMS: 3.66e6
- viability with MMS, replicate 1: 4.19e6

Ordered by “mean viability with MMS” (ascending): 5 of the entries above
Mekk1 [DRSC16303]
- mean viability with MMS: 3.43e6
- viability with MMS, replicate 1: 3.86e6

Rh2 [DRSC16821]
- mean viability with MMS: 3.44e6
- viability with MMS, replicate 1: 4.03e6

Lcp2 [DRSC07456]
- mean viability with MMS: 3.44e6
- viability with MMS, replicate 1: 3.96e6

gus [DRSC04886]
- mean viability with MMS: 3.53e6
- viability with MMS, replicate 1: 4.00e6

gus [DRSC04885]
- mean viability with MMS: 3.71e6
- viability with MMS, replicate 1: 4.15e6
